Laboratory results taken from article PMC9630792.
These are yes or no findings as the source states them, for the method shown. In cells and extracts the contact can be indirect. Some entries that bind do so weakly or less than the wild type. Tags and fused reporters may be left off the sequences shown.

Amino acid sequences for entries named in this document (tags omitted). A change or cut given only in a name is not applied to a line headed by its entry. Chains listed by the source or under a name are the forms on record and can include a tag or linker. Residues count along the entry.
UniProt P06104: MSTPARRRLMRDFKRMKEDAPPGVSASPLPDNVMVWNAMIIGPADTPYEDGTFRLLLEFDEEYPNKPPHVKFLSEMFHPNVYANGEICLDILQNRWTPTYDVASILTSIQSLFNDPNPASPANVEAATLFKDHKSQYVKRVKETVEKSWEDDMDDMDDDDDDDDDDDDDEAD
His6-Rad6 (amino acids 1-150) (S. cerevisiae (budding yeast)): residues 1-150 of P06104
His6-rad6-A126F (amino acids 1-150) (S. cerevisiae (budding yeast)) (P06104, form named): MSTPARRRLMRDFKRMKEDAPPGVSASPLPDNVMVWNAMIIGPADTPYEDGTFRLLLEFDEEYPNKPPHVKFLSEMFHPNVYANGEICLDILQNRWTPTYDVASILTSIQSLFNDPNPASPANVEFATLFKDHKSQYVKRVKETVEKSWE
His6-rad6-A126T (amino acids 1-150) (S. cerevisiae (budding yeast)) (P06104, form named): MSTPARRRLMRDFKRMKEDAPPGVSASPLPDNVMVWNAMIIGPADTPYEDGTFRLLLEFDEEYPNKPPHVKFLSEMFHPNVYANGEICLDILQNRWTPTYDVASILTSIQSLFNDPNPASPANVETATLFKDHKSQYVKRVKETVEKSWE
UniProt Q07963: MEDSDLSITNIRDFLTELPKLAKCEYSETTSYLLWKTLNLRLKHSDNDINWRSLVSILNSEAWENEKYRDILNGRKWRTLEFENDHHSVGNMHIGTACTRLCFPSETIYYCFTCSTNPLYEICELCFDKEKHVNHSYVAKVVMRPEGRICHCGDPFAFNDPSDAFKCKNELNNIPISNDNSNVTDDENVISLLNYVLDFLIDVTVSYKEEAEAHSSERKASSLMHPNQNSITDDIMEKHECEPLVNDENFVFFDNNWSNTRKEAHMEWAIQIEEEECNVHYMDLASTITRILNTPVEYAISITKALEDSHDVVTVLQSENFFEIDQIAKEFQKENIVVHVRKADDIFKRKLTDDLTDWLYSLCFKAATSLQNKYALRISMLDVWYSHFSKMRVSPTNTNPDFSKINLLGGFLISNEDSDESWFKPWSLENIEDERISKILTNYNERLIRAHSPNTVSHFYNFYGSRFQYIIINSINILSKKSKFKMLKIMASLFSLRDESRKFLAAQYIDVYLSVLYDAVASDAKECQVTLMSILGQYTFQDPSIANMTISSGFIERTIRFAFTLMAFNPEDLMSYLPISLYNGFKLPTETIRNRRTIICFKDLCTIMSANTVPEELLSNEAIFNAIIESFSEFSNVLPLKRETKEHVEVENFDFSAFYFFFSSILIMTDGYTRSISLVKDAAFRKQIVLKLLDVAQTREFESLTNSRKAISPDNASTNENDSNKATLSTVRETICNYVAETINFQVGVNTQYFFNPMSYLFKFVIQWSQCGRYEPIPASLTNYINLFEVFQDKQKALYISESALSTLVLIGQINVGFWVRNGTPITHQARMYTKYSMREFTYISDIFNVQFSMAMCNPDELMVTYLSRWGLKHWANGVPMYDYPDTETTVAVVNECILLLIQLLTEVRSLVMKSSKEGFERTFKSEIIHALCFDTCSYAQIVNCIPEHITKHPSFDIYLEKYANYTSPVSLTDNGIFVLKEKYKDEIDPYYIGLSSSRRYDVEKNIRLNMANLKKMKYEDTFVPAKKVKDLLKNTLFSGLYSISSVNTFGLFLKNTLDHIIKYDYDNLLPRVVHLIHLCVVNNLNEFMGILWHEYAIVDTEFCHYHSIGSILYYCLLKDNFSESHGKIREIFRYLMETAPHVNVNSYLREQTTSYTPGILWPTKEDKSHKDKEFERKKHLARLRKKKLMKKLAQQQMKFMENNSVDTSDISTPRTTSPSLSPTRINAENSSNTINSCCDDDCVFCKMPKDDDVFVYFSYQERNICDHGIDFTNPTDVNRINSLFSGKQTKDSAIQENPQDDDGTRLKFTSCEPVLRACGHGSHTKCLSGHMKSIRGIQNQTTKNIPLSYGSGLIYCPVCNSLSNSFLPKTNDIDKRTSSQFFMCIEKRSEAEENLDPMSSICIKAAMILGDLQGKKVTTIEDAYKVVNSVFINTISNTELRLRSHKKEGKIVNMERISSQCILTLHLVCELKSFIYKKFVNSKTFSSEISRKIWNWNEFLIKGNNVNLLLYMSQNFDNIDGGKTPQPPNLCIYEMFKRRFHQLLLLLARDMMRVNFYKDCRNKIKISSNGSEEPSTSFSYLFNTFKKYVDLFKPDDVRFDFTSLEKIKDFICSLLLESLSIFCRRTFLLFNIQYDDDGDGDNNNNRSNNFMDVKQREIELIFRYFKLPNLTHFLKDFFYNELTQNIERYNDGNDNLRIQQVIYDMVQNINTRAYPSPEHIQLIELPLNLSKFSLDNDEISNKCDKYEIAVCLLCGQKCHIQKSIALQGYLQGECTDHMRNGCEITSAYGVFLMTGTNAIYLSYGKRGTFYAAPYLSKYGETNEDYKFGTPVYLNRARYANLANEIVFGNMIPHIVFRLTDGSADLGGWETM

Experiments:
[1] = molecular target: Flag epitope-tagged WT Rad6 (S. cerevisiae (budding yeast)) (UniProt P06104); assay: co-IP; yeast lysate (1 mg) with anti-Flag M2 magnetic beads, 4 h at 4 °C in 10 mM Tris.Cl pH 8.0, 100 mM NaCl, 10% glycerol, 0.1% NP-40; immunoblotting
[2] = molecular target: Flag epitope-tagged rad6-A126F (S. cerevisiae (budding yeast)) (UniProt P06104); assay: as above
[3] = molecular target: Flag epitope-tagged rad6-A126T (S. cerevisiae (budding yeast)) (UniProt P06104); assay: as above
[4] = molecular target: His6-Rad6 (amino acids 1-150) (S. cerevisiae (budding yeast)) (UniProt P06104); assay: pull-down; metal affinity copurification: His6-tagged WT or mutant Rad6 coexpressed with Bre1R6BR or Rad18R6BR in E. coli; clarified lysate bound to TALON SuperFlow resin 2 h at 4 °C in 25 mM Tris.Cl pH 7.9, 150 mM NaCl, 20 mM imidazole, 0.1% Triton X-100; SDS-PAGE and Coomassie-type staining
[5] = molecular target: His6-rad6-A126F (amino acids 1-150) (S. cerevisiae (budding yeast)) (UniProt P06104); assay: as above
[6] = molecular target: His6-rad6-A126T (amino acids 1-150) (S. cerevisiae (budding yeast)) (UniProt P06104); assay: as above

Measured: binding

6HA-tagged Ubr2 (from UniProt Q07963 1-1872) (enzyme)
binds: [1] | [2] | [3]

B1: Bre1 Rad6-binding region (R6BR) (amino acids 1-214) (domain or fragment, UniProt Q07457 1-214)
chain: MTAEPATKKIKLELSDPSEPLTQSDVIAFQKEALFRCINRRRVDFEALRKQYELSRRECIDVSRKLANIMALIVTLARFIETFCTDANEKQLCREIAQGDETLIVQRSDSFMKLLTKYGKPNTTDSNTNSNASDHIQELTTELKNLRKSKEELFYENSQLTEEISALKEYYTNIIRKYDRDESFTIKRVFKEDKTDAVKELREDEKESNENNIK
binds: [4] | [5] | [6]

B2: 9Myc-tagged Rad18 (enzyme, UniProt P10862 1-487)
chain: MDHQITTASDFTTTSIPSLYQLDTLLRCHICKDFLKVPVLTPCGHTFCSLCIRTHLNNQPNCPLCLFEFRESLLRSEFLVSEIIQSYTSLRSSLLDALRIPKPTPVPENEEVPGPENSSWIELISESESDSVNAADDDLQIVATSERKLAKRSMTDILPLSSKPSKRNFAMFRSERIKKKSKPNEQMAQCPICQQFYPLKALEKTHLDECLTLQSLGKKPKISTTFPTESNPHNKSSSRFKVRTPEVDKSSCGETSHVDKYLNSMMSAEHQRLPKINFTSMTQSQIKQKLSSLGLSTNGTRQNMIKRYNHYEMLWNSNFCDSLEPVDEAELKRQLLSWDVSHNKTPQNSSNKGGISKLMIMKSNGKSSSYRKLLENFKNDKFNRKGWMVMFRKDFARLIREAKMKIKTGSSDSSGSVGHSNDGDGVEKVQSDQGTEDQQMEKDQDTVINEDRVAGERNLPNEDSTDADLSRELMDLNEYSKDPPGNN
binds: [1] | [2] | [3]

B3: Bre1 (enzyme, UniProt Q07457 1-700)
chain: MTAEPATKKIKLELSDPSEPLTQSDVIAFQKEALFRCINRRRVDFEALRKQYELSRRECIDVSRKLANIMALIVTLARFIETFCTDANEKQLCREIAQGDETLIVQRSDSFMKLLTKYGKPNTTDSNTNSNASDHIQELTTELKNLRKSKEELFYENSQLTEEISALKEYYTNIIRKYDRDESFTIKRVFKEDKTDAVKELREDEKESNENNIKSGNKDSSAINGDNTSKKSEKGDELVQAEDERKEDAENEKLELDLKFSDLRAEINSLSSTIKDLENIRRENEEELIKTRSEVSNLKKQQIAAADQDPDFKSYDHESLLAKIQHLTEQNAELSEINSSFLSKFQVLAKEKEIYTKKVREEFQKSLDSLVEMNSSLEKDVVRIRTARDDLLSKIAILEAEKSKTEVLSDLQHAIDILKEQWTKIDQRSNDTKSSSTQDALIKEIQDLEKGFRELSDLTHKKYSEIINHESVISKLTVEKTKADQKYFAAMRSKDSILIEIKTLSKSLSKSNELILQLKDSDRLLQQKIGNLHKQLDLSQNNERRLIDSSKTETLKIIDLNNTSTKLKRSLEKLQEESNKSIADMTHLETKLNDTEIELKHFKQKASHLESKCEKLHDTLFRGNNKNKGSSDEALVEELANFRTLVYCSLCSKNWKNMAIKTCGHVFCENCCKERLAARMRKCPTCNKAFSSNDLLTVHL
binds: [1] | [2] | [3]

B4: GST-tagged Rad18 Rad6-binding region (R6BR) (amino acids 301-487) (domain or fragment, UniProt P10862 301-487)
chain: RQNMIKRYNHYEMLWNSNFCDSLEPVDEAELKRQLLSWDVSHNKTPQNSSNKGGISKLMIMKSNGKSSSYRKLLENFKNDKFNRKGWMVMFRKDFARLIREAKMKIKTGSSDSSGSVGHSNDGDGVEKVQSDQGTEDQQMEKDQDTVINEDRVAGERNLPNEDSTDADLSRELMDLNEYSKDPPGNN
binds: [4] | [5] | [6]
